According to patent US8647887B2, “Measuring G protein coupled receptor activation” (Commonwealth Scientific and Industrial Research Organisation, priority 2009, dated 2014):

System: ODR-10 receptor (OGOR)
Experiment: cell-free BRET^2 assay with dual-labelled ODR-10 (OGOR) in yeast membrane preparations
Type: biochemical, C. elegans
Conditions: diacetyl 1 μM
Protocol: Cells were harvested by centrifugation at 1500×g (4° C.) for 5 minutes, washed in water and resuspended in 4 mL of Dulbecco's phosphate buffered saline (D-PBS) or 1×PBS, containing 1000 mg/L glucose, 36 mg/L sodium pyruvate, calcium and magnesium (Invitrogen). The cells were lysed by French press (˜18000 psi) and the soluble protein fractions were isolated by centrifugation at 9300×g (4° C.) for 15 minutes. Following this the soluble protein fraction was transferred to 13.15 mL polycarbonate thick wall centrifuge tubes and ultracentrifuged at 40,000 rpm (Beckman Coulter L-80 ultra-centrifuge) for 1 hour at 4° C. […]
Simultaneous dual emission RET measurements were carried out with a POLARstar OPTIMA microplate reader (BMG LabTech). […]
To assess the relative concentrations of BRET^2 tagged receptor samples the fluorescence intensity of the sample was determined from spectral scans and the sample amount normalized by the OGOR fluorescence intensity. To convert GFP^2 intensity into concentration purified GFP^2 protein was assayed at different concentrations to produce a calibration graph relating concentration to fluorescence intensity. […] Rearranging the line of best fit equation (y=271x+233.31) results in conversion of fluorescence intensity to concentration. […]
A sigmoidal dose response curve was fitted, and EC50 calculated, by non-linear regression analysis using GraphPad Prism for Windows XP.

CC(=O)C(C)=O [diacetyl]
donor-acceptor distance upon addition of ligand (6.8 nm before addition): 7.6 nm
measured transfer efficiency for OGOR upon addition of ligand (64.3% before addition): 47%
